Data on 1 compound can be found in ChEMBL document CHEMBL4665668, “Design and development of molecular hybrids of 2-pyridylpiperazine and 5-phenyl-1,3,4-oxadiazoles as potential multifunctional agents to treat Alzheimer's disease” (Eur J Med Chem, 2019).

Each structure is given as a SMILES string.

The series can be described thus: Permeability of the compound in PBS/EtOH buffer (7:3) at 25 ug/ml after 18 hrs by PAMPA-BBB assay. In general terms: The PAMPA barrier holds no transporters, so it reflects passive diffusion.

In general, Papp refers to a coefficient for how fast a substance crosses the barrier. High values mean ready permeation, low ones poor permeation. As to `COc1cc2c(cc1OC)C(=O)C(CC1CCN(Cc3ccccc3)CC1)C2` (stereo unspecified) [DONEPEZIL], the Papp at 18 h, 25 ug/ml stood at 7.6 ×10⁻⁶ cm/s.
